Cleaved PARP in drug-treated melanoma cells

Source: doi:10.1371/journal.pone.0140310, primary screening data, rounded.

Compounds and concentrations:
ZM336372, 10 µM: Cc1ccc(NC(=O)c2cccc(N(C)C)c2)cc1NC(=O)c1ccc(O)cc1
AZD7762, 0.1 µM: NC(=O)Nc1cc(-c2cccc(F)c2)sc1C(=O)N[C@H]1CCCNC1
GSK650394, 0.8 µM: O=C(O)c1ccc(-c2c[nH]c3ncc(-c4ccccc4)cc23)cc1C1CCCC1
nutlin-3, 0.5 µM: COc1ccc(C2=N[C@@H](c3ccc(Cl)cc3)[C@@H](c3ccc(Cl)cc3)N2C(=O)N2CCNC(=O)C2)c(OC(C)C)c1

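The test systems are human melanoma cell lines, treated with two drugs together for 72 h and then stained and imaged. The read-out is the fraction of cleaved-PARP-positive nuclei, in % of that fraction in the DMSO control; 200 means twice the control level of this apoptosis marker. Concentrations were fixed for each drug; these are the higher of two levels. The file gives one value for each pair and line, without errors, so small differences may be noise. Basal and induced levels differ widely between cell lines.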
This is part of the screen, not chosen by result.

For nutlin-3 + AZD7762 the values were UACC-257: 43.0; IPC-298: 296; A2058: 341; A101D: 184; C32: 1120; SK-MEL-5: 140; RPMI-7951: 132; RVH-421: 76.8; LOX IMVI: 167; COLO 829: 60.5; LB2518-MEL: 324; MZ2-MEL: 174; IST-MEL1: 70.2; G-361: 156; WM3526: 646; SK-MEL-28: 101; MeWo: 316; WM1745: 134; WM1716: 314; WM3619: 551; COLO 792: 224; SK-MEL-30: 354; SK-MEL-2: 216; UACC-62: 179; MEL-HO: 88.5; WM451Lu: 292; COLO 800: 259; WM115: 441. Results for GSK650394 + nutlin-3 are UACC-257: 111; IPC-298: 161; A2058: 60.7; A101D: 165; C32: 226; SK-MEL-5: 86.6; RPMI-7951: 80.6; RVH-421: 108; LOX IMVI: 132; COLO 829: 115; LB2518-MEL: 72.7; MZ2-MEL: 211; IST-MEL1: 89.5; G-361: 224; WM3526: 268; SK-MEL-28: 53.7; MeWo: 199; WM1745: 69.6; WM1716: 90.2; WM3619: 157; COLO 792: 126; SK-MEL-30: 106; SK-MEL-2: 123; UACC-62: 164; MEL-HO: 94.7; WM451Lu: 105; COLO 800: 180; WM115: 253. For ZM336372 + GSK650394 the values were UACC-257: 41.6; IPC-298: 41.3; A2058: 116; A101D: 344; C32: 83.1; SK-MEL-5: 159; RPMI-7951: 163; RVH-421: 62.8; LOX IMVI: 114; COLO 829: 258; LB2518-MEL: 190; MZ2-MEL: 188; IST-MEL1: 109; G-361: 367; WM3526: 285; SK-MEL-28: 62.8; MeWo: 121; WM1745: 76.6; WM1716: 51.0; WM3619: 107; COLO 792: 153; SK-MEL-30: 50.5; SK-MEL-2: 142; UACC-62: 165; MEL-HO: 106; WM451Lu: 56.3; COLO 800: 174; WM115: 57.5.

With ZM336372 + nutlin-3 the screen read UACC-257: 148; IPC-298: 62.4; A2058: 112; A101D: 154; C32: 108; SK-MEL-5: 156; RPMI-7951: 154; RVH-421: 79.8; LOX IMVI: 134; COLO 829: 163; LB2518-MEL: 61.4; MZ2-MEL: 113; IST-MEL1: 81.6; G-361: 92.0; WM3526: 70.3; SK-MEL-28: 123; MeWo: 71.5; WM1745: 83.3; WM1716: 52.0; WM3619: 105; COLO 792: 25.7; SK-MEL-30: 78.7; SK-MEL-2: 129; UACC-62: 126; MEL-HO: 70.9; WM451Lu: 98.4; COLO 800: 61.0; WM115: 70.1. Results for AZD7762 + ZM336372 are UACC-257: 63.7; IPC-298: 55.7; A2058: 270; A101D: 83.6; C32: 752; SK-MEL-5: 44.7; RPMI-7951: 195; RVH-421: 108; LOX IMVI: 268; COLO 829: 196; LB2518-MEL: 177; MZ2-MEL: 171; IST-MEL1: 76.4; G-361: 99.9; WM3526: 611; SK-MEL-28: 136; MeWo: 232; WM1745: 174; WM1716: 559; WM3619: 418; COLO 792: 555; SK-MEL-30: 146; SK-MEL-2: 126; UACC-62: 202; MEL-HO: 45.5; WM451Lu: 298; COLO 800: 183; WM115: 79.4. Results for AZD7762 + GSK650394 are UACC-257: 75.4; IPC-298: 266; A2058: 159; A101D: 62.6; C32: 623; SK-MEL-5: 74.3; RPMI-7951: 144; RVH-421: 508; LOX IMVI: 70.3; COLO 829: 117; LB2518-MEL: 56.6; MZ2-MEL: 70.6; IST-MEL1: 326; G-361: 178; WM3526: 347; SK-MEL-28: 192; MeWo: 134; WM1745: 113; WM1716: 128; WM3619: 285; COLO 792: 218; SK-MEL-30: 174; SK-MEL-2: 163; UACC-62: 86.7; MEL-HO: 58.3; WM451Lu: 91.9; COLO 800: 428; WM115: 176.